Some results were stated once for a whole list of compounds, not compound by compound.
biological target: T1, ER beta receptor (Homo sapiens, UniProt Q92731); experiment: Competition ER binding assay (3H-Estradiol displacement); conditions: 3H-Estradiol competition; IC50 converted to Ki by Cheng-Prusoff
T1 construct: purchased PanVera
Experimental: The competition ER binding assay was run in a buffer containing 50 mM N-[2-hydroxyethyl]piperazine-N′-[2-ethanesulfonic acid (Hepes) pH 7.5, 1.5 mM EDTA, 150 mM NaCl, 10% glycerol, 1 mg/mL ovalbumin, 5 mM DTT, 0.025 μCi per well of ^3H-Estradiol(NEN #NET517 at 118 Ci/mmol, 1 mCi/mL), and 10 ng/well ERAlpha or ERbeta Receptor (PanVera). Competing compounds were added at 10 different concentrations. Non-specific binding was determined in the presence of 1 μM of E2 (17-β Estradiol, Sigma, St. Louis, Mo.). The binding reaction (140 μL) was incubated for 4 hours at room temperature, then 70 μL of cold dextran coated charcoal (DCC) buffer was added to each reaction (DCC buffer was prepared by adding 0.75 g of charcoal[Sigma] and 0.25 g of dextran [Pharmacia] per 50 mL of assay buffer). The incubation plates were mixed for 8 minutes on an orbital shaker at 4° C. and then centrifuged at 3,000 rpm for 10 minutes at 4° C. An aliquot of 120 μl of the mix was transferred to another 96-well, white flat bottom plate (Costar) and 175 μl of Wallac Optiphase Hisafe 3 scintillation fluid was added to each well. The plates were sealed and then shaken vigorously on an orbital shaker. After an incubation of 2.5 hrs, the radioactivity was counted in a Wallac Microbeta counter. […] The Kd for ^3H-Estradiol was determined by saturation binding to ERα and ERβ receptors. The IC50 values for compounds were converted to Ki values using the Cheng-Prusoff equation and the Kd values were determined by saturation binding assay.

Amino acid sequences for entries named in this document (tags omitted).
UniProt Q92731, whole entry: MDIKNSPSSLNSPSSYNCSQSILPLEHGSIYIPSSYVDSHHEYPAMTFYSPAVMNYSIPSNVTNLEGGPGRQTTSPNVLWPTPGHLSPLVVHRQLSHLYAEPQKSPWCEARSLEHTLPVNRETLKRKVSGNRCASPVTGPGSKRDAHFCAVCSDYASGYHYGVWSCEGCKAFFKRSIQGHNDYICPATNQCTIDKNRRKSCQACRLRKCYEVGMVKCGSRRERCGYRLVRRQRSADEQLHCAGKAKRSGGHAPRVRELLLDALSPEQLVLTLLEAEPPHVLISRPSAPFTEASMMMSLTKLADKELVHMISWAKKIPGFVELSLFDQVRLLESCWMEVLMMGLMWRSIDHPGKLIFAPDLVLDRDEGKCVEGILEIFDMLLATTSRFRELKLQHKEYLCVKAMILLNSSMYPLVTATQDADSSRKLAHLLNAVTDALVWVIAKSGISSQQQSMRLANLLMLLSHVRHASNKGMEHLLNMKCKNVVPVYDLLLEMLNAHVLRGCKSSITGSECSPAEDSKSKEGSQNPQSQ

SMILES | Ki
Oc1ccc2c(c1)[C@H]1CCC[C@H]1[C@@H](c1ccc(F)cc1)O2 (racemic) [Example 2, (±)-2-(4-Fluorophenyl)-6-hydroxy-cyclopentyl[c]3,4-dihydro-2H-1-benzopyran] | < 100 nM
CCc1ccc([C@H]2Oc3ccc(O)cc3[C@H]3CCC[C@H]32)cc1 (racemic) [Example 3, (±)-2-(4-ethylphenyl)-6-hydroxy-cyclopentyl[c]3,4-dihydro-2H-1-benzopyran] | < 100 nM
Oc1ccc2c(c1)[C@H]1CCC[C@H]1[C@@H](c1ccc(C(F)(F)F)cc1)O2 (racemic) [Example 4, (±)-2-(4-Trifluoromethylphenyl)-6-hydroxy-cyclopentyl[c]3,4-dihydro-2H-1-benzopyran] | < 100 nM
Cc1ccc([C@H]2Oc3ccc(O)cc3[C@H]3CCC[C@H]32)cc1 (racemic) [Example 6, (±)-2-(4-Methylphenyl)-6-hydroxy-cyclopentyl[c]3,4-dihydro-2H-1-benzopyran] | < 100 nM

Reference: patent publication US6630508B1, “Substituted benzopyrans as selective estrogen receptor β agonists” (Eli Lilly and Company, priority 2002, dated 2003)
